These are yes or no findings as the source states them, for the method shown. Some results given as binding are weak or reduced against the parent protein; the word gives no strength. For part of these data: Tags and fused reporters may be left off the sequences shown.
Molecular target: T1, Ska2 (His-GST tagged, bait of the co-purification) (human) (UniProt Q8WVK7)
T1 sequence: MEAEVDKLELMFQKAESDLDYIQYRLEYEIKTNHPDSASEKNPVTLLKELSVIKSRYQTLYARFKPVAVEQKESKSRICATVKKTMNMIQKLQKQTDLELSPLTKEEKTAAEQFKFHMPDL
Experiment: co-purification (glutathione affinity by the GST of Ska2, then SEC); three plasmids co-transformed in E. coli BL21 Gold; glutathione sepharose in batch, washes with 500 mM NaCl and 1 M NaCl; eluted with glutathione, tags cleaved with TEV; Superose 6 in 20 mM Tris-HCl pH 8, 100 mM NaCl, 5 mM DTT

Row | Substance | binding
1 | Ska1, subunit of the wt Ska complex (from UniProt Q96BD8 1-255) | binds
2 | Ska3 1-101 (from UniProt Q8IX90 1-101) (domain or fragment) | binds
3 | Ska3 1-151 (from UniProt Q8IX90 1-151) (domain or fragment) | binds
4 | Ska3 1-195 (from UniProt Q8IX90 1-195) (domain or fragment) | binds
5 | Ska3 (V58I), subunit of the wt Ska complex (from UniProt Q8IX90 1-412) | binds
6 | Ska3 D321/E323/D326K (recombinant subunit) (from UniProt Q8IX90 1-412) | binds
7 | Ska3 K199/202A (recombinant subunit) (from UniProt Q8IX90 1-412) | binds
8 | Ska3 S394/K399A (recombinant subunit) (from UniProt Q8IX90 1-412) | binds

Molecular target: Ska1, subunit of the wt Ska complex (human) (UniProt Q96BD8)
Experiment: cross-linking; 6 μM Ska complex cross-linked to 10 μM microtubules with the zero-length cross-linker EDC and Sulfo-NHS; higher molecular weight gel band digested, mass spectrometry (CLMS); both purified

Row | Substance | binding
9 | Ska3 (V58I), subunit of the wt Ska complex (from UniProt Q8IX90 1-412) | binds
